According to patent publication US20250352608A1, “POLYPEPTIDES HAVING ANTI-INFLAMMATORY EFFECTS AND USES THEREOF” (OneSkin, Inc., priority 2020, published 2025):
Not every detail of the peptide structures is certain; ends, links or a residue may be inferred. Ends that are not written are not given here.

Tests used:
[1] = test system: human skin equivalents (fibroblasts and keratinocytes from healthy elder donors); experiment: Human skin equivalents: score, SA B-gal, RT-qPCR, epidermal thickness; type: cell-based; conditions: 0.01% w.v., 5 days
[2] = test system: primary fibroblasts isolated from 3 healthy chronologically aged (elder) donors; experiment: ATRX foci immunostaining, aged donor fibroblasts; type: cell-based, human; conditions: 500 nM and 50 nM, 48 hours
U-937 macrophages = experiment: Macrophage activation and polarization mRNA (RT-qPCR); type: cell-based, human; conditions: 3.12 μM with 0.5 μg/mL LPS, 24 hours
3D skin models = experiment: In vitro 3D skin model: DNA methylation age and histology; type: cell-based, human; conditions: 12.5 μM, 5 days; untreated about 80
fibroblasts = experiment: SA B-galactosidase staining after UVB (Example 8); type: cell-based, human; conditions: 48 hours after 2 x 0.05 J/cm^2
Method: In order to shed light into the mechanism of action of Peptide 14 and similar Peptide 13, Akt S473 phosphorylation (FIG. 8, panel A), senescence associated β-galactosidase staining (FIG. 8, panel B), as well as mRNA expression (FIG. 8, panel C) were investigated. For Akt S473 phosphorylation analysis using western blotting, human primary fibroblasts and keratinocytes were used. These cells were used to build human skin equivalents, which were kept in a 5% CO2, 37° C. and 95% humidity atmosphere air liquid interface. Then, skin equivalents were treated with 1p M of either Peptide 14 or Peptide 13 for 5 days, and protein analysis was performed on the skin equivalents. Protein was isolated and quantified. Equal amounts of protein were loaded in polyacrylamide gels and transferred into a nitrocellulose membrane. […] Relative pAkt S473/GAPDH signal was compared between treated and non-treated samples. For senescence associated B-galactosidase staining experiments, fibroblasts were used. […] Total RNA was isolated, samples were reverse transcribed, and mRNA expression of GAPDH, sirtuin 6 (SIRT6), BLM, and exonuclease 1 (EXO1) genes were determined using qPCR. […] CT values were analyzed using the 2^−ΔΔCt method. […] Data was analyzed using a T-test. Statistical significance was determined as p values equal or lower than 0.05 (FIG. 8).

[3] = test system: Primary fibroblasts isolated from 7 healthy chronologically aged patients; experiment: ATRX foci dose response, 7 donors; type: cell-based, human; conditions: 1.56-25 μM
HDFs = experiment: Real-time qPCR in HDFs; type: cell-based, human; conditions: 12.5 μM
[4] = test system: peripheral blood mononuclear cells (PBMCs); experiment: PBMC mRNA of IFN-γ and IL-10 (RT-qPCR); type: cell-based, human
Method: The effect of Peptide 14 on T cell activation was assessed by treating PBMCs stimulated with phytohaemagglutinin (PHA) with Peptide 14. PHA usually can trigger lymphocyte activation and cell division. PBMCs that were untreated with PHA or Peptide 14 served as negative control of lymphocyte activation. In the phytohaemagglutinin group, the PBMCs were activated with 5 μg/mL of PHA for 5 days. In the Peptide 14 and PHA group, the PBMCs were activated with 5 μg/mL of PHA and treated with 3.12 μM of Peptide 14 for 5 days. In the Peptide 14 group, the PBMCs were treated with 3.12 μM of Peptide 14 for 5 days. In the rapamycin group, the PBMCs were treated with 100 nM of rapamycin, a well-known immunosuppressive drug for 5 days. In the rapamycin+PHA group, the PBMCs were activated with 5 μg/mL of PHA and treated with 100 nM of rapamycin for 5 days. […] IFN-γ is typically produced in lymphocytes stimulated by PHA and may be used as marker of PBMC stimulation level. IL-10 is an anti-inflammatory cytokine. The cells from each of the experimental groups were processed for total RNA isolation, reverse transcription of the RNA and RT-qPCR. Data is represented as relative expression normalized to ubiquitous gene expression and untreated PBMC negative control.

For ETAKHWLKGI [Peptide 14, ETAKHWLKGI], the “IL-8 mRNA expression, dermis” value [1] was “decreased expression”, the “MMP-1 mRNA expression, dermis” value [1] was “decreased expression” and the “SA β-galactosidase staining” value [1] was “significant decrease”. The “p16 mRNA expression, dermis” value [1] was “significant decrease”, the “p16 mRNA expression, epidermis” value [1] was “significant decrease” and the “epidermal thickness (total epidermal area)” value ([1]; vs untreated control) was “increased epidermal thickness”. For the same sequence, the “skin equivalent score (maximum 28)” value ([1]; control 19.0±2) was 24±1, the “number of cells with less than 10 ATRX foci/nuclei” value [2] was “increased” and the ATRX foci/nuclei ([2]; vs untreated cells) was “significantly decreased”. The “ARG1 expression vs LPS alone” value (U-937 macrophages) was “higher level”, the “CD86 expression vs LPS alone” value (U-937 macrophages) was “lower level” and the “HLA-DQA1 expression vs LPS alone” value (U-937 macrophages) was “lower level”. For the same sequence, the “IFN-γ expression vs LPS alone” value (U-937 macrophages) was “lower level”, the “IL-4 expression vs LPS alone” value (U-937 macrophages) was “higher level” and the “IL-10 expression vs LPS alone” value (U-937 macrophages) was “higher level”. For the same sequence, the “TNF-α expression vs LPS alone” value (U-937 macrophages) was “lower level”, the “mean of predicted age (molecular DNA age)” value (3D skin models) was “about 66” and the “SA B-galactosidase staining in UVB-exposed samples” value (fibroblasts) was “decreased staining”. For the same sequence, the “relation of concentration and ATRX foci/nuclei” value [3] was “dose-response pattern”, the “number of ATRX foci/nuclei” value ([3]; 48 hours, covariance analysis) was “significantly reduced” and the NRIP1 gene expression (HDFs) was “significant reduction”. For the same sequence, the RB1CC1 gene expression (HDFs) was “no statistical significance”, the RBL2 gene expression (HDFs) was “significant reduction” and the SIRT1 gene expression (HDFs) was “did not elicit significant change”. For the same sequence, the TGFBR1 gene expression (HDFs) was “significantly decreased”, the “relative expression level of IL-10 (negative control = 1)” value ([4]; single agent, 5 days (Peptide 14 3.12 μM; rapamycin 100 nM; PHA 5 μg/mL)) was “about 4” and the “relative expression level of IL-10 (negative control = 1)” value ([4]; with 5 μg/mL PHA, 5 days (Peptide 14 3.12 μM; rapamycin 100 nM)) was “about 0.5”.
